Consider one molecule from PMC2875737, “Determination of drug-like properties of a novel antileishmanial compound: In vitro absorption, distribution, metabolism, and excretion studies” (Indian Journal of Pharmacology, 2009).

The data set concerns rat liver microsomes. As to the kind of experiment: Metabolism by liver microsomal enzymes. It is filed as in vitro ADME. Particulars: rat liver microsomes 0.5 mg protein/ml, 10 μM, 1 hour, 37°C, NADPH regeneration system; ± SEM. The protocol:
Ethical clearance was obtained from Animal Ethics Committee of Indian Institute of Chemical Biology for use of animals for the present study. […] The % stability (% compound remaining after metabolism) was calculated as follows:
(3) % Compound remaining=100×(peak area of 1 hour sampl/peak area of 0 hour sample)
For 0 hour sample, the compound was added after addition of ice-cold acetonitrile and then vortexed, followed by centrifugation as mentioned above.

Each structure is given as a SMILES string.

For the molecule `CC(C)NCC(O)COc1ccc(CC(N)=O)cc1` (stereo not shown) [Atenolol], the “% Parent compound remaining, result” value came to 90.33 ± 1.30%.
